The text below walks through data of paper PMC7455142.

Protein sequences, listed by entry. Tags and fused reporters are not part of them. Lines headed by an entry give the natural chain unless they say otherwise; changes in a name come on top. Chains listed by the source or under a name are the forms on record and can include a tag or linker.
3xFlag-tagged Cdc42 splice variant 2 (P60953, form named): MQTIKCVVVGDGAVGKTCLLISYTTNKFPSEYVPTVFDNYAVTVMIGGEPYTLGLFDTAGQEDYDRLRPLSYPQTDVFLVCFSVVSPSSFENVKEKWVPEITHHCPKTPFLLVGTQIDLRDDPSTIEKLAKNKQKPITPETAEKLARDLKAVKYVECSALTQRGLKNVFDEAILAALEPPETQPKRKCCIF

Assay [1] concerns the target 3xFlag-tagged Cdc42 splice variant 2 (UniProt P60953). As to the kind of experiment: co-IP; Flag-tagged Cdc42 with full-length EGFR, EGFR ICD or EGFR ECD in HEK293 cells; IP Flag.
Assay [2] concerns the target 3xFlag-tagged Cdc42 variant 1 (canonical Cdc42) (UniProt P60953). The assay is described as above.
In assay [3] the target is 3xFlag-tagged Cdc42 splice variant 2 (UniProt P60953). As to the kind of experiment: co-IP; Cdc42 V1 or V2 with endogenous EGFR and clathrin in HEK293 cells.

No constants are given. Whether binding was seen depends on the method and setting. Binding seen in cells or lysates may run through a third protein. Some binding calls cover weakened binding; strength is not graded here.

With “EGFR extracellular domain (ECD) (from UniProt P00533 25-645) (domain or fragment)”, the binding result in assay [1] and in assay [2] was “no binding” throughout.
Turning to “endogenous EGFR (from UniProt P00533 25-1210) (receptor)”, the binding entry in assay [3] is given as “binds”.
Regarding “full-length EGFR (from UniProt P00533 25-1210) (receptor)”, the binding result in assay [1] is on record as “binds”.
